Experimental findings from PMC4844422, “Activity Regulation by Heteromerization of Arabidopsis Allene Oxide Cyclase Family Members” (Plants, 2016) are described below.

By UniProt entry, the sequences of proteins in these tests, tags left out. Residues count along the entry.
UniProt Q9LS02, residues 78-253: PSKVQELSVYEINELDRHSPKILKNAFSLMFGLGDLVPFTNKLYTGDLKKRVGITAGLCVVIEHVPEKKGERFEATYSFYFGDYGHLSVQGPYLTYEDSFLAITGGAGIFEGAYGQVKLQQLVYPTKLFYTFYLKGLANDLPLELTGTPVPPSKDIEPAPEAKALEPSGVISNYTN

The test has as its target T1, Arabidopsis allene oxide cyclase 4 (AOC4), as co-expressed in heteromers (Arabidopsis thaliana) (UniProt Q93ZC5).
T1 sequence: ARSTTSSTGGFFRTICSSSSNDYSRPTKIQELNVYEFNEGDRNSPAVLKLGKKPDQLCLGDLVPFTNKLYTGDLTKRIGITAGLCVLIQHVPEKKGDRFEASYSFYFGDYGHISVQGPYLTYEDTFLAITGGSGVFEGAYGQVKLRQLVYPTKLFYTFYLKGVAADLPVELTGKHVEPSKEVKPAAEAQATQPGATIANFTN
Put plainly: sequential affinity co-purification (Ni-NTA, then StrepTactin); two AOCs co-expressed in E. coli from one vector, one His-tagged and one Strep-tag-II-tagged; eluate of Ni-NTA-agarose put on StrepTrap HP; immunoblots with anti-His-tag antibody and StrepTactin-HRP after SDS at 96 °C. A general note: A western blot detects proteins with antibodies after separation by electrophoresis.

Positions count from the first letter of the chain named. These are yes or no findings as the source states them, for the method shown. Some results given as binding are weak or reduced against the parent protein; the word gives no strength.

B1: Arabidopsis allene oxide cyclase 1 (AOC1), as co-expressed in heteromers (enzyme, UniProt Q9LS03 79-254)
chain: PSKVQELSVYEINDLDRHSPKILKNAFSFRFGLGDLVPFTNKLYTGDLKKRVGITAGLCVVIEHVPEKNGDRFEATYSFYFGDYGHLSVQGPYLTYEDSFLAITGGAGIFEGAYGQVKLQQLVYPTKLFYTFYLKGLANDLPLELIGTPVPPSKDVEPAPEAKALKPSGVVSNFTN
Regarding B1, the binding result is given as “binds”.

B2: Arabidopsis allene oxide cyclase 2 (AOC2), as co-expressed in heteromers (enzyme, UniProt Q9LS02 78-253)
chain: B1 chain with D14E, F29L, R30M, N69K, D71E, I146T, V156I, K166E, V171I, F174Y
B2: the binding result is listed as “binds”.
